In publication PMC7819943, “Rice protein-binding microarrays: a tool to detect cis-acting elements near promoter regions in rice”:
Some of the results follow.

By UniProt entry, the sequences of proteins in these tests, tags left out.
UniProt Q0JBA9, entry or part of it: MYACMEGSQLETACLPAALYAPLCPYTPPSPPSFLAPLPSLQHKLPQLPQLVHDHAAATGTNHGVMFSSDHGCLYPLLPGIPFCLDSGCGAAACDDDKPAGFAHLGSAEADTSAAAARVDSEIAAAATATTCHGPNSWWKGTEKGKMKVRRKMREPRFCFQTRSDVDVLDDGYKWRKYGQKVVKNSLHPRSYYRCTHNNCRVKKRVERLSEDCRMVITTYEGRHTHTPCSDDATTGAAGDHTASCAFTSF

Molecular target: OsWRKY34 (Oryza sativa, UniProt Q0JBA9 1-250)
Test: protein-binding microarray (RPBM); PBS, 2% BSA, 51.3 ng/ul salmon testes DNA, 50 uM zinc acetate, 200 nM TF, 25 C, 1 h; high values mean tight binding
Details: protein: recombinant; tags: N-terminal polyhistidine and DsRed monomer fusion (pET32a); label: CyDye5-dUTP incorporated in the synthesized complementary strand; 3' TTTTT single-stranded linker to array surface; dsDNA, one strand shown
Summary of the method: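 In PBS with 2% BSA, salmon testes DNA and 50 µM zinc acetate, 200 nM protein was incubated on a custom Agilent array at 25 °C for 1 h and then washed off. The array had been made double-stranded by primer extension with Cy5-dUTP and blocked with 2% BSA. The proteins were transcription factors fused N-terminally to polyhistidine and DsRed, expressed in E. coli BL21-CodonPlus and purified on Ni–NTA. The binding signal is per-feature fluorescence intensity (arbitrary units) from an Axon 4000B scanner.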

Sequence	binding signal
ATCATCTCGTTTTGTGTGAAACACTTCATCTTCATCTTCACGGAGTCACCTAGTGCAG	11100 fluorescence intensity (a.u.)
TCTTTTCTGAACCTTGATCTTTTCCTAAGCCTATCTTTCTCGGAGTCACCTAGTGCAG	8920 fluorescence intensity (a.u.)
GAGTTGAGGATGGGTAAGAATAATAACCGGTATAAAGTGACGGAGTCACCTAGTGCAG	8110 fluorescence intensity (a.u.)
GACTTAACCAAACAGTTTTCCGATCTTGCATTTTTTTCGTCGGAGTCACCTAGTGCAG	12800 fluorescence intensity (a.u.)
CCTCTCTCAGCTCAACTGCCTCCTCCTCTCTCTCTCTCCTCGGAGTCACCTAGTGCAG	10300 fluorescence intensity (a.u.)
GTCTCCGCCACCCGCCACCCGGGGAGCTCTGCCTCCGCCTCGGAGTCACCTAGTGCAG	8620 fluorescence intensity (a.u.)
GGACATTGTTTCCTTCTCTTCTCTTATTTATTCGTTTGCCCGGAGTCACCTAGTGCAG	10200 fluorescence intensity (a.u.)
GGGGCGTTGGGTCTTCTGTTCCCTAGAAGTATGGATTTCCCGGAGTCACCTAGTGCAG	11400 fluorescence intensity (a.u.)
GAACGGGCCGGTCGGGGAACGGGCGGGCGGGTATAAAGGCCGGAGTCACCTAGTGCAG	9450 fluorescence intensity (a.u.)
TTTTGGTATTTTCCTCGTATTGCAAGCCACGGGTACCAAACGGAGTCACCTAGTGCAG	8460 fluorescence intensity (a.u.)
TTACTGATGTTATTTCTATATTTTACCACCTTTCACGATACGGAGTCACCTAGTGCAG	8110 fluorescence intensity (a.u.)
CCTCACTGATCTGCTCCGCTTCGCCTCCGGGACTCCATCCCGGAGTCACCTAGTGCAG	12200 fluorescence intensity (a.u.)
ACACAAACCTCCTATCCCTCTAGCCATTAAACTATCCGTTCGGAGTCACCTAGTGCAG	9420 fluorescence intensity (a.u.)
GTCGTTTTGCACAAAGTTCCAGACCTTCCTGTCCGTTTGTCGGAGTCACCTAGTGCAG	8060 fluorescence intensity (a.u.)
TGATAGAGTTGTTAGATATGTGCATCCATTTAGTTTCTTGCGGAGTCACCTAGTGCAG	8550 fluorescence intensity (a.u.)
ATTGCCTGCCTAGCTTTCCTCCGATCCCAGTAGTGGTTCACGGAGTCACCTAGTGCAG	8680 fluorescence intensity (a.u.)
CTGCCGCCGCCGTCATCTCCGACGCTCCTCCGTGGCGGCCCGGAGTCACCTAGTGCAG	9090 fluorescence intensity (a.u.)
GCTGTTACCATTGGCCATATTTGCGATGCATTATTATGCCCGGAGTCACCTAGTGCAG	8030 fluorescence intensity (a.u.)
CGGCCCCGGCGGTTTGGAAACCCTACTTATCGTTCAACTACGGAGTCACCTAGTGCAG	9860 fluorescence intensity (a.u.)
ACCGTCAGCCTTCACTCACTCACACTATCACCGCGACACCCGGAGTCACCTAGTGCAG	8870 fluorescence intensity (a.u.)
CTAATTCCTTCATTTTCGTTTCTTTTTTCCTCGATGTTGCCGGAGTCACCTAGTGCAG	9530 fluorescence intensity (a.u.)

Sequence	binding signal
TTGGTTTCGGTCCGAGGATTTCTAGTTTGGTGGAGAATTACGGAGTCACCTAGTGCAG	9150 fluorescence intensity (a.u.)
GCAGGCGGCGGAGGATTTTTGGGAGGGGAAAACGGCGAGTCGGAGTCACCTAGTGCAG	8540 fluorescence intensity (a.u.)
GAAATACTCCAATGGGTTAACTTAGGGTCGGGAAGGGGAGCGGAGTCACCTAGTGCAG	10100 fluorescence intensity (a.u.)
GATCAGCTGATTGGTTGGTTTGGTTGTTGTGGTGGAGATGCGGAGTCACCTAGTGCAG	12200 fluorescence intensity (a.u.)
ACCGTCCGCGCCACATCGGAGCTCATCGCCGGCGGCCTCGCGGAGTCACCTAGTGCAG	8760 fluorescence intensity (a.u.)
TAGTCTTTGTCGTTTCCATGTATAACTCTATTTATCTTTCCGGAGTCACCTAGTGCAG	12400 fluorescence intensity (a.u.)
GGCCGGAGAGATTTTGTGGGGAGGAGGAGGATTGGTTGACCGGAGTCACCTAGTGCAG	11400 fluorescence intensity (a.u.)
TGTACTCATGACTTATATTTTTAATTTTTTTAAAAAATTTCGGAGTCACCTAGTGCAG	10000 fluorescence intensity (a.u.)
CGTCTCCGGCTCTCCGCTACTAGGGTTTGCGCGCGCAAGTCGGAGTCACCTAGTGCAG	8920 fluorescence intensity (a.u.)
AATTTTTTTTGCCGCTCCTGATGTTTTATGCGCAAAACGTCGGAGTCACCTAGTGCAG	8060 fluorescence intensity (a.u.)
TCATCTCTAGCCACTTCGCTTCAGCTTTTCTTCTTTCTTGCGGAGTCACCTAGTGCAG	9220 fluorescence intensity (a.u.)
ATTTTCGGGTGTCCTGTAGCAATTTTGCCTATTAAGTACTCGGAGTCACCTAGTGCAG	8320 fluorescence intensity (a.u.)
GTAGGGGTGGTGGATTTTTTTTTATTTGCTGAGATGATTTCGGAGTCACCTAGTGCAG	20600 fluorescence intensity (a.u.)
ATTTCTCCACTACTTATTTGTTTCAACCAATCATATCCATCGGAGTCACCTAGTGCAG	8840 fluorescence intensity (a.u.)
CTTCTCTCATCATTTGCAGGCACTAGTGATTAGCGCCACACGGAGTCACCTAGTGCAG	10100 fluorescence intensity (a.u.)
GATGTTTCCGTGTGTATTCAATTTTCGATATTGTTTTTCGCGGAGTCACCTAGTGCAG	10400 fluorescence intensity (a.u.)
CCCTTTCTTCTTCTTTTTTCTTTTTCTGAACGCGCACAATCGGAGTCACCTAGTGCAG	10300 fluorescence intensity (a.u.)
ATCTGTATTGTATGTTCAGTCATTCCTGCTACCCCATTTACGGAGTCACCTAGTGCAG	8430 fluorescence intensity (a.u.)
ATCCTTCTGGAGTAAGGTTTTGTGCTGGGTGGATTTGGGACGGAGTCACCTAGTGCAG	8500 fluorescence intensity (a.u.)
TTGTCTCAAGACTTCTCTGGCTATCTCATTGCTTAATTGGCGGAGTCACCTAGTGCAG	8690 fluorescence intensity (a.u.)
CATATCCACTTCGCCTCTTCCCTTTGATGTTGCGAGTGAACGGAGTCACCTAGTGCAG	9740 fluorescence intensity (a.u.)

Quoted at random: two records from the list, in no set order.
Sequence	binding signal
TCATCTCTAGCCACTTCGCTTCAGCTTTTCTTCTTTCTTGCGGAGTCACCTAGTGCAG	9220 fluorescence intensity (a.u.)
AATTTTTTTTGCCGCTCCTGATGTTTTATGCGCAAAACGTCGGAGTCACCTAGTGCAG	8060 fluorescence intensity (a.u.)
